Out of some 2,200 compounds screened, about 15 (0.7%) were called active.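 Rule for the calls: active = fitted half-maximal concentration for loss of luminescence signal no more than a set limit of log units above the top tested concentration; inconclusive = flat fit with 30 to 70% signal loss, or invalid fit; inactive = half-maximal concentration above that set limit.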 Some of the results follow.
Test: ADP-Glo luciferase signal interference – biochemical, luminescence, cell-free, homogeneous, artefact control for GSK3beta inhibitor project, dose response (AID 434947);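 note: kinase-free counter screen of ADP-Glo detection reagents for GSK3beta hits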
Settings: Cell-free ADP-Glo reagents, 5 uM ADP

EC50, inactive:
COc1cccc(C(=O)c2sc(NC(C)C)nc2N)c1 > 30 µM
COCCn1nnnc1C(c1cc2cc(C)ccc2[nH]c1=O)N1CCc2ccccc21 (stereo unspecified) > 30 µM
COc1cc(/C=N\NC(=O)c2ccc(Cl)cc2)ccc1Oc1ccc([N+](=O)[O-])cn1 > 30 µM
COc1ccc(Nc2nc(N)c([N+](=O)[O-])c(NCc3ccccc3)n2)cc1 > 30 µM
Fc1cccc(Nc2ncnc3[nH]ncc23)c1 > 30 µM
COc1ccc(-c2ccc3c(N)c(C(=O)c4cccc(OC)c4)sc3n2)cc1 > 30 µM
CCOC(=O)/C(C#N)=C/c1cn(CCC(=O)O)nc1-c1cccc(Cl)c1 > 30 µM
COc1ccc(N2CC(C(=O)Nc3cc(C)ccn3)CC2=O)cc1 (stereo unspecified) > 30 µM
Cn1c(SCc2nnc(-c3ccc(F)cc3)o2)nnc1C1COc2ccccc2O1 (stereo unspecified) > 30 µM
CN1CCN(/N=C2/C(=O)Nc3ccc([N+](=O)[O-])cc32)CC1 > 30 µM
Cc1c(/C=N/NC(=O)COc2ccccc2[N+](=O)[O-])c2ccccc2n1C > 30 µM
COc1cccc2cc(C(=O)OC(C)C(=O)c3ccc(C)cc3)c(=O)oc12 (stereo unspecified) > 30 µM
N#CCCSc1nc(N2CCOCC2)c2c(c1C#N)CCCC2 > 30 µM
COC(=O)C1=C(C)N(Cc2ccccc2)C(=NCc2ccc(OC)cc2)N[C@H]1c1cccc(F)c1 > 30 µM
O=C(Nc1cccc(F)c1)c1cccc2c1C(=O)N(C1CCCCC1)C2 > 30 µM
CC(=O)N1CCc2c(sc(NC(=O)C3CCCN3S(=O)(=O)c3cccs3)c2C(N)=O)C1 (stereo unspecified) > 30 µM
C[C@]12C=CC(=O)C=C1CC[C@@H]1C2[C@@H](O)C[C@@]2(C)C1CC[C@]2(O)C(=O)COC(=O)CCC(=O)O (stereo partly specified) > 30 µM
N#Cc1c(-c2ccccc2)nc(-c2ccncc2)[nH]c1=O > 30 µM
COc1ccc(S(=O)(=O)NCC(c2ccc3c(c2)OCO3)N2CCOCC2)cc1 (stereo unspecified) > 30 µM
CC1=C(C(=O)OCC2CCCO2)C(c2ccc(O)cc2)NC(=O)N1 (stereo unspecified) > 30 µM
C/C(=N\Nc1nccnc1Cl)c1ccc(Br)cc1 > 30 µM
CC(=O)Nc1c(-c2ccccc2)nc2ccc(Cl)cn12 > 30 µM
COc1ccc(-c2nn(-c3ccccc3)cc2CO)cc1OC > 30 µM
O=C(COC(=O)C1CCN(/C=C/C(=O)C(F)(F)F)CC1)Nc1ccccc1 > 30 µM
N#CC(=C=[N-])c1nc2ccccc2nc1-[n+]1cccc(NC(=O)c2ccccc2)c1 > 30 µM
COc1ccc2cc(C(=O)C3CCCN(C(=O)c4sc(C)nc4C)C3)ccc2c1 (stereo unspecified) > 30 µM
COc1ccc(/C=C2/Sc3ccc(C(=O)NCCN4CCCCCC4)cc3NC2=O)cc1 > 30 µM
O=c1cc(-c2ccccc2Cl)oc2cccc(O)c12 > 30 µM
Cc1nc2[nH]c(=O)c3c(n2n1)NC1=C(C(=O)CC(C)(C)C1)C3c1ccc(F)cc1 (stereo unspecified) > 30 µM
Cc1cc(C)c(C#N)c(SCC(=O)c2ccc(Cl)cc2Cl)n1 > 30 µM
O=C(CC1SC(N2CCCCC2)=NC1=O)Nc1cccc(C(F)(F)F)c1 (stereo unspecified) > 30 µM
CC(C)Nc1nc(N)c(C(=O)C23CC4CC(CC(C4)C2)C3)s1 > 30 µM
CCCn1nc(NC(=O)C(C)(C)C)c2cc3cc(OC)ccc3nc21 > 30 µM
CCOC(=O)CC(=O)CSc1ccc2nnc(-c3cccc(F)c3)n2n1 > 30 µM
CCOC(=O)c1nnn(-c2nonc2N)c1-c1ccc(OC)cc1 > 30 µM
CCO[C@H]1OC(C(=O)N2CCN(Cc3ccccc3)CC2)=C[C@@H](C)[C@@H]1CCCO > 30 µM
COc1cccc(C2C3=C(CCCC3=O)Nc3[nH]n(-c4ccccc4)c(=O)c32)c1 (stereo unspecified) > 30 µM
O=[N+]([O-])c1ccccc1/C=N/n1c(C2CCCCC2)n[nH]c1=S > 30 µM
COc1ccc(-n2c(Cc3cccn3C)nnc2SCC(=O)NCC2CCCO2)cc1 (stereo unspecified) > 30 µM
O=C(Nc1cccc(F)c1)Nc1ccccn1 > 30 µM
CCCn1cc(SCC(=O)NCc2ccco2)c2ccccc21 > 30 µM
c1ccc(CCCCNCC2COc3ccccc3O2)cc1 (stereo unspecified) > 30 µM
O=C(c1ccc(Cl)nc1)N1CCN(C/C=C/c2ccccc2)CC1 > 30 µM
CCc1ccc(NC(=O)C(NS(=O)(=O)c2cccc3nsnc23)c2ccccc2)cc1 (stereo unspecified) > 30 µM
CC(=O)Nc1ccc(C(=O)OCCCOC(=O)c2ccc(NC(C)=O)cc2)cc1 > 30 µM
Cc1ccc(NC2=CC(=O)CC(C)(C)C2)cc1C > 30 µM
CCCCCCSc1ccc([C@H]2N[C@@](CC(C)C)(C(=O)OC)[C@H]3C(=O)N(C)C(=O)[C@@H]23)cc1 > 30 µM
Cc1cccc(C(=O)NC2CC3CCCC(C2)N3Cc2ccccc2)c1 (stereo unspecified) > 30 µM
CCc1ccc(C2CC(c3ccc(C)cc3)Nc3nc(N)nn32)cc1 (stereo unspecified) > 30 µM
CCOC(=O)c1c(-c2ccc(C)o2)csc1N > 30 µM
CCCn1nc(NC(=O)c2cccs2)c2cc3cccc(C)c3nc21 > 30 µM
CC(C)(C)c1csc(NC(=O)c2cccnc2)n1 > 30 µM
CCOC(=O)c1sc(Nc2ccccc2)nc1C > 30 µM
Fc1ccc(CSc2nnc(-c3ccccn3)o2)cc1 > 30 µM
Nc1nonc1-n1nnc(C(=O)N/N=C/c2ccc(OCc3ccccc3F)cc2)c1CN1CCCCC1 > 30 µM
COCCn1c(SCC(=O)Nc2ccc(Cl)c(S(=O)(=O)N(C)C)c2)nc2ccccc21 > 30 µM

Of the compounds above, these contain an aryl thioether with sulfur outside any ring:
EC50, inactive:
Cn1c(SCc2nnc(-c3ccc(F)cc3)o2)nnc1C1COc2ccccc2O1 (stereo unspecified) > 30 µM
N#CCCSc1nc(N2CCOCC2)c2c(c1C#N)CCCC2 > 30 µM
Cc1cc(C)c(C#N)c(SCC(=O)c2ccc(Cl)cc2Cl)n1 > 30 µM
CCOC(=O)CC(=O)CSc1ccc2nnc(-c3cccc(F)c3)n2n1 > 30 µM
COc1ccc(-n2c(Cc3cccn3C)nnc2SCC(=O)NCC2CCCO2)cc1 (stereo unspecified) > 30 µM
CCCn1cc(SCC(=O)NCc2ccco2)c2ccccc21 > 30 µM
CCCCCCSc1ccc([C@H]2N[C@@](CC(C)C)(C(=O)OC)[C@H]3C(=O)N(C)C(=O)[C@@H]23)cc1 > 30 µM
Fc1ccc(CSc2nnc(-c3ccccn3)o2)cc1 > 30 µM
COCCn1c(SCC(=O)Nc2ccc(Cl)c(S(=O)(=O)N(C)C)c2)nc2ccccc21 > 30 µM

Reprinted from the listing (2 entries):
EC50, inactive:
CCc1ccc(C2CC(c3ccc(C)cc3)Nc3nc(N)nn32)cc1 (stereo unspecified) > 30 µM
CCOC(=O)c1c(-c2ccc(C)o2)csc1N > 30 µM
